These are yes or no findings as the source states them, for the method shown. Some results given as binding are weak or reduced against the parent protein; the word gives no strength.
T1: human POC1B (human) (UniProt Q8TC44)
T1 sequence: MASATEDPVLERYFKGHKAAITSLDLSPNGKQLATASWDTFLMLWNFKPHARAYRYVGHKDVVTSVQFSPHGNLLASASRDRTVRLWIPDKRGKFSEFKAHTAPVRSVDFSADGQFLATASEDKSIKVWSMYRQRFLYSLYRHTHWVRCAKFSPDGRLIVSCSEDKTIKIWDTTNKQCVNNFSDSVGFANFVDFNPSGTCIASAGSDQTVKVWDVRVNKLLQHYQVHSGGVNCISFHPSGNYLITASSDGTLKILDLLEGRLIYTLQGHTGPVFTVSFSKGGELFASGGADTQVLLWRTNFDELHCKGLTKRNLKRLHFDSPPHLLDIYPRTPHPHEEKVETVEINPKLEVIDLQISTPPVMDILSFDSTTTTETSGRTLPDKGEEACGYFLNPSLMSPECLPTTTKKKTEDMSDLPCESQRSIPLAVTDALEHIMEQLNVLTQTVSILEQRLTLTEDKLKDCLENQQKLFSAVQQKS

T2: human POC1B C-terminus, amino acids 365–478 (human) (UniProt Q8TC44)
T2 sequence: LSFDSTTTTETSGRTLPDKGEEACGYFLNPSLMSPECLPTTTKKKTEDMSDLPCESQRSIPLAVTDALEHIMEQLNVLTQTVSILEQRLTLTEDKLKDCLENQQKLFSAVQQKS


How the values were obtained:
human POC1B (human) = molecular target: T1, human POC1B (human); test: two-hybrid; GAL4-based yeast two-hybrid, GAL4-BD (pGBKT7) and GAL4-AD (pGADT7) fusions co-transformed in yeast strain AH109; selection on DDO (-Leu, -Trp), interaction confirmed on TDO (-Leu, -Trp, -His) and QDO (-Leu, -Trp, -His, -Ade)
[1] = molecular target: T2, human POC1B C-terminus, amino acids 365–478 (human); test: as above

Binder	binding (human POC1B (human))	binding [1]
human FAM161A type 2, amino acids 1–141 (domain or fragment, UniProt Q3B820-3 1-141) MATSHRVAKLVASSLQTPVNPITGARVAQYEREDPLKALAAAEAILEDEEEEKVAQPAGASADLNTSFSGVDEHAPISYEDFVNFPDIHHSNEEYFKKVEELKAAHIETMAKLEKMYQDKLHLKEVQPVVIREDSLSDSSR	binds	–
human POC5 N-terminus, amino acids 1–222 (domain or fragment, UniProt Q8NA72 1-222) MSSDEEKYSLPVVQNDSSRGSSVSSNLQEEYEELLHYAIVTPNIEPCASQSSHPKGELVPDVRISTIHDILHSQGNNSEVRETAIEVGKGCDFHISSHSKTDESSPVLSPRKPSHPVMDFFSSHLLADSSSPATNSSHTDAHEILVSDFLVSDENLQKMENVLDLWSSGLKTNIISELSKWRLNFIDWHRMEMRKEKEKHAAHLKQLCNQINELKELQKTFE	–	binds

Reference: publication PMC10761967
